Assay results from publication PMC7819943, “Rice protein-binding microarrays: a tool to detect cis-acting elements near promoter regions in rice”.
Some of the results follow.

Protein sequences, listed by entry. Tags and fused reporters are not part of them.
UniProt Q0JBA9, entry or part of it: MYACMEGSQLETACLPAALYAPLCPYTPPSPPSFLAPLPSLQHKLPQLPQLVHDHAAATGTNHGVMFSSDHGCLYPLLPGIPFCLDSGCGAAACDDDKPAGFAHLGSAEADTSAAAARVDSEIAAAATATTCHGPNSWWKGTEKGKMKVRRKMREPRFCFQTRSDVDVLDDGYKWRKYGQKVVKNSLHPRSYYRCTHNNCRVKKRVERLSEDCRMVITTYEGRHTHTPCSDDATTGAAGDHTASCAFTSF

target: OsWRKY34 (Oryza sativa, UniProt Q0JBA9 1-250); experiment: protein-binding microarray (RPBM); PBS, 2% BSA, 51.3 ng/ul salmon testes DNA, 50 uM zinc acetate, 200 nM TF, 25 C, 1 h; high values mean tight binding; settings: protein: recombinant; tags: N-terminal polyhistidine and DsRed monomer fusion (pET32a); label: CyDye5-dUTP incorporated in the synthesized complementary strand; 3' TTTTT single-stranded linker to array surface; dsDNA, one strand shown
In short: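 Ni–NTA purification followed expression in E. coli BL21-CodonPlus of transcription factors fused N-terminally to a polyhistidine tag and DsRed. At 200 nM in PBS with 2% BSA, salmon testes DNA and 50 µM zinc acetate, the protein was incubated for 1 h at 25 °C with a custom Agilent array that had been primer-extended with Cy5-dUTP and blocked with 2% BSA. After washing, the array was read on an Axon 4000B scanner. The binding signal is per-feature fluorescence intensity in arbitrary units.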

Row | Sequence | binding signal
1 | CGGTGGAGGGCGGAGGGCGTCGAGCTCCGGCGGCGGAGGTCGGAGTCACCTAGTGCAG | 8610 fluorescence intensity (a.u.)
2 | GTTCCGCCGCTACAAGCTCGACCCCTTCGCGTAAACCTCTCGGAGTCACCTAGTGCAG | 8620 fluorescence intensity (a.u.)
3 | TTTTTTTTTCCTTTTGCTGACATGCATTATGTTTTCTATTCGGAGTCACCTAGTGCAG | 10000 fluorescence intensity (a.u.)
4 | CTGCTTACTCCACTCTTTCTCTGCTTTCTGGTTCATCTATCGGAGTCACCTAGTGCAG | 11400 fluorescence intensity (a.u.)
5 | TCGCTCGATCTCGTAGTAGACATCGCCTACACACATATACCGGAGTCACCTAGTGCAG | 8140 fluorescence intensity (a.u.)
6 | GATCTGACCGGATTTTGCGGTGGGGTTTTCTTTTTTGGGTCGGAGTCACCTAGTGCAG | 12200 fluorescence intensity (a.u.)
7 | CACCGCTCCGCCCTTTATTAAGCGCGGTGCATTTCGCGCTCGGAGTCACCTAGTGCAG | 8220 fluorescence intensity (a.u.)
8 | GTGTGTTGGTGTTTCTTAGTCTATGTTTTCTTTATATTATCGGAGTCACCTAGTGCAG | 14400 fluorescence intensity (a.u.)
9 | AGCGAGATCCGATTGTTTATCTGTAACCCCATTTTAAACCCGGAGTCACCTAGTGCAG | 9780 fluorescence intensity (a.u.)
10 | GGTCCTACAGGTCAATAACTTTACCATTTTTTCCTCGTCTCGGAGTCACCTAGTGCAG | 9210 fluorescence intensity (a.u.)
11 | AGGAATCGTAAACTGCAAAACATCCTTTTCACATTCCTACCGGAGTCACCTAGTGCAG | 9000 fluorescence intensity (a.u.)
12 | TCTTCGTATAAAAAGTATGACGCCGTTGACTTTTCATATACGGAGTCACCTAGTGCAG | 14500 fluorescence intensity (a.u.)
13 | GGAGGTGGTGGTGGTGGAGGCATCGCCGACGACAAGTACCCGGAGTCACCTAGTGCAG | 12500 fluorescence intensity (a.u.)
14 | CACACCTGGTACATATGGATGTTCTGGCTGGTATCTGGTACGGAGTCACCTAGTGCAG | 8420 fluorescence intensity (a.u.)
15 | CTCATCCATCACTTTCTTTGTCCATCTCGACCTGAGAATTCGGAGTCACCTAGTGCAG | 8880 fluorescence intensity (a.u.)
16 | ACTCTCCCGTTATTGCCGCCACCGGACCGCTAGCTCCGCACGGAGTCACCTAGTGCAG | 9570 fluorescence intensity (a.u.)
17 | TGGATGGCCTTTTGTCTCTTTGTATATTATATATTTAGTTCGGAGTCACCTAGTGCAG | 8260 fluorescence intensity (a.u.)
18 | TGTCAACCCGCGCCTCCGATTTCTCCAGCTTTTCTTTCCCCGGAGTCACCTAGTGCAG | 12800 fluorescence intensity (a.u.)
19 | TACTTGCACTTTACTATATTCTTGCTGTTACGCACCACATCGGAGTCACCTAGTGCAG | 14600 fluorescence intensity (a.u.)
20 | CTCTCGCGCCAAGCCGGCCTCCATCTTCGCCGCCCGCGCCCGGAGTCACCTAGTGCAG | 11300 fluorescence intensity (a.u.)
21 | TCTCAACAGCTCCTTCAGTACCATCTTCACTCTTTTTCATCGGAGTCACCTAGTGCAG | 8060 fluorescence intensity (a.u.)
22 | GCGTACTTTACTATACTTTAGCCATTCCACATCAGTCCGTCGGAGTCACCTAGTGCAG | 8320 fluorescence intensity (a.u.)
23 | GTACAGTTCCTCCTCCTCCGGTCTCTCTCACCTGTCTGTCCGGAGTCACCTAGTGCAG | 10500 fluorescence intensity (a.u.)

Laid out differently: entries from further up

| Row | Sequence | binding signal |
| --- | --- | --- |
| 2 | GTTCCGCCGCTACAAGCTCGACCCCTTCGCGTAAACCTCTCGGAGTCACCTAGTGCAG | 8620 fluorescence intensity (a.u.) |
| 12 | TCTTCGTATAAAAAGTATGACGCCGTTGACTTTTCATATACGGAGTCACCTAGTGCAG | 14500 fluorescence intensity (a.u.) |
